Consider three molecules from doi:10.1101/2022.03.08.483512.

Experiment [1] addresses human GABAA receptor α1 subunit, wild type (human). The experiment is described as follows: affinity purification with mass spectrometry.
In experiment [2] the target is human GABAA receptor α1 subunit carrying the A322D variant (human). Description: affinity purification with mass spectrometry.

Results are given in words; binding and its absence hold for the method and conditions named. In cells and extracts the contact can be indirect. A yes stands for co-enrichment or nearness to the bait. Other partners may have been found.

B1: reticulocalbin 2 (protein, UniProt Q14257 23-317)
chain: GKAEELHYPLGERRSDYDREALLGVQEDVDEYVKLGHEEQQKRLQAIIKKIDLDSDGFLTESELSSWIQMSFKHYAMQEAKQQFVEYDKNSDDTVTWDEYNIQMYDRVIDFDENTALDDAEEESFRKLHLKDKKRFEKANQDSGPGLSLEEFIAFEHPEEVDYMTEFVIQEALEEHDKNGDGFVSLEEFLGDYRWDPTANEDPEWILVEKDRFVNDYDKDNDGRLDPQELLPWVVPNNQGIAQEEALHLIDEMDLNGDKKLSEEEILENPDLFLTSEATDYGRQLHDDYFYHDEL
In the case of B1, the binding result in experiment [1] and in experiment [2] was “binds” each time.

B2: SerpinH1 (protein, UniProt P50454 19-418)
chain: AEVKKPAAAAAPGTAEKLSPKAATLAERSAGLAFSLYQAMAKDQAVENILVSPVVVASSLGLVSLGGKATTASQAKAVLSAEQLRDEEVHAGLGELLRSLSNSTARNVTWKLGSRLYGPSSVSFADDFVRSSKQHYNCEHSKINFRDKRSALQSINEWAAQTTDGKLPEVTKDVERTDGALLVNAMFFKPHWDEKFHHKMVDNRGFMVTRSYTVGVMMMHRTGLYNYYDDEKEKLQIVEMPLAHKLSSLIILMPHHVEPLERLEKLLTKEQLKIWMGKMQKKAVAISLPKGVVEVTHDLQKHLAGLGLTEAIDKNKADLSRMSGKKDLYLASVFHATAFELDTDGNPFDQDIYGREELRSPKLFYADHPFIFLVRDTQSGSLLFIGRLVRPKGDKMRDEL
Consider B2, for which the binding entry in experiment [1] and in experiment [2] was “binds” each time.

B3: RPN1 (protein, UniProt P04843 24-607)
chain: ASSEAPPLINEDVKRTVDLSSHLAKVTAEVVLAHLGGGSTSRATSFLLALEPELEARLAHLGVQVKGEDEEENNLEVRETKIKGKSGRFFTVKLPVALDPGAKISVIVETVYTHVLHPYPTQITQSEKQFVVFEGNHYFYSPYPTKTQTMRVKLASRNVESYTKLGNPTRSEDLLDYGPFRDVPAYSQDTFKVHYENNSPFLTITSMTRVIEVSHWGNIAVEENVDLKHTGAVLKGPFSRYDYQRQPDSGISSIRSFKTILPAAAQDVYYRDEIGNVSTSHLLILDDSVEMEIRPRFPLFGGWKTHYIVGYNLPSYEYLYNLGDQYALKMRFVDHVFDEQVIDSLTVKIILPEGAKNIEIDSPYEISRAPDELHYTYLDTFGRPVIVAYKKNLVEQHIQDIVVHYTFNKVLMLQEPLLVVAAFYILFFTVIIYVRLDFSITKDPAAEARMKVACITEQVLTLVNKRIGLYRHFDETVNRYKQSRDISTLNSGKKSLETEHKALTSEIALLQSRLKTEGSDLCDRVSEMQKLDAQVKELVLKSAVEAERLVAGKLKKDTYIENEKLISGKRQELVTKIDHILDAL
As for B3, the binding result in experiment [1] and in experiment [2] was “binds” throughout.
